Test results as given in publication PMC2685004, “Recruitment of a SAP18-HDAC1 Complex into HIV-1 Virions and Its Requirement for Viral Replication” (PLoS Pathogens, 2009).

Key:
[1] = target: LexADB (LexA DNA binding domain) alone; test: two-hybrid; LexADB fusions as bait, GAL4AC fusion of the HL60 cDNA library clone as prey, in yeast
LexADB-Laminin = test: as above

- binding [1]: no binding
- binding (LexADB-Laminin): no binding
B1: GAL4AC fusion of SAP18 fragment (aa 45-153), clone #18829-49.1 (domain or fragment, UniProt O00422 45-153)
chain: EFSRGNVPSSELQIYTWMDATLKELTSLVKEVYPEARKKGTHFNFAIVFTDVKRPGYRVKEIGSTMSGRKGTDDSMTLQSQKFQIGDYLDIAITPPNRAPPPSGRMRPY

No constants are given. Whether binding was seen depends on the method and setting. Sequences can lack the tags named with a protein.
